{"source": "PubChem BioAssay AID1259281 (Sanger Institute, 2017)", "test": "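Identify essential genes and drug-enhancing knock-downs among kinases and common colorectal mutated genes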 (primary screen)", "system": "human COLO678 colorectal cancer cell line", "knock-down reagent": "siRNA pool against human genes", "treatment": "anchor drugs at fixed doses: BYL719 1 µM, cetuximab 5 µg/ml or trametinib 10 nM; DMSO vehicle for the siRNA-alone arm", "read-out": "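Surviving cells scaled to non-targeting siRNA control as replicate means; robust z-score for knock-down alone; synergy scores weigh knock-down with drug against the predicted combined effect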", "scale": "robust z-score, siRNA alone: higher = more viable cells; strongly negative means essential", "hit rule": "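Essential (knock-down alone) when the siRNA-alone robust z-score is below -3; otherwise no change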", "calls": "active = essential (knock-down alone); inactive = no change", "note": "The whole screen tested 794 reagents; shown is a random part of them. Of all reagents, 22 (2.8%) got an active call. 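Calls rest on knock-down alone only; drug synergy scores play no part in them.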 Not all columns of the deposit are shown. No sequences are given here. Not stated in the record: the amount of reagent, the time to read-out."}
{"Gene": "PFKP (phosphofructokinase, platelet)", "robust z-score, siRNA alone": 0.473, "Call": "inactive"}
{"Gene": "TRIB3 (tribbles pseudokinase 3)", "robust z-score, siRNA alone": 0.473, "Call": "inactive"}
{"Gene": "TRIB2 (tribbles pseudokinase 2)", "robust z-score, siRNA alone": -3.13, "Call": "active"}
{"Gene": "PRKY (protein kinase Y-linked (pseudogene))", "robust z-score, siRNA alone": 0.473, "Call": "inactive"}
{"Gene": "CHD4 (chromodomain helicase DNA binding protein 4)", "robust z-score, siRNA alone": 0.473, "Call": "inactive"}
{"Gene": "NTN4 (netrin 4)", "robust z-score, siRNA alone": 0.473, "Call": "inactive"}
{"Gene": "GNAS (GNAS complex locus)", "robust z-score, siRNA alone": 0.473, "Call": "inactive"}
{"Gene": "ELF3 (E74 like ETS transcription factor 3)", "robust z-score, siRNA alone": -0.643, "Call": "inactive"}
{"Gene": "ACVR1B (activin A receptor type 1B)", "robust z-score, siRNA alone": 0.473, "Call": "inactive"}
{"Gene": "MAP3K4 (mitogen-activated protein kinase kinase kinase 4)", "robust z-score, siRNA alone": 0.114, "Call": "inactive"}
{"Gene": "AGK (acylglycerol kinase)", "robust z-score, siRNA alone": 0.473, "Call": "inactive"}
{"Gene": "GALK2 (galactokinase 2)", "robust z-score, siRNA alone": 0.473, "Call": "inactive"}
{"Gene": "EPHA3 (EPH receptor A3)", "robust z-score, siRNA alone": -0.751, "Call": "inactive"}
{"Gene": "LIMK1 (LIM domain kinase 1)", "robust z-score, siRNA alone": 0.473, "Call": "inactive"}
{"Gene": "PRKAR2A", "robust z-score, siRNA alone": 0.473, "Call": "inactive"}
{"Gene": "NEK11 (NIMA related kinase 11)", "robust z-score, siRNA alone": -0.122, "Call": "inactive"}
{"Gene": "NR4A2 (nuclear receptor subfamily 4 group A member 2)", "robust z-score, siRNA alone": -2.71, "Call": "inactive"}
{"Gene": "PRPS2 (phosphoribosyl pyrophosphate synthetase 2)", "robust z-score, siRNA alone": 0.473, "Call": "inactive"}
{"Gene": "STK17B (serine/threonine kinase 17b)", "robust z-score, siRNA alone": -0.41, "Call": "inactive"}
{"Gene": "CDKN2B (cyclin dependent kinase inhibitor 2B)", "robust z-score, siRNA alone": 0.473, "Call": "inactive"}
{"Gene": "PTEN (phosphatase and tensin homolog)", "robust z-score, siRNA alone": 0.473, "Call": "inactive"}
{"Gene": "EPHB3 (EPH receptor B3)", "robust z-score, siRNA alone": -0.811, "Call": "inactive"}
{"Gene": "EIF2AK1 (eukaryotic translation initiation factor 2 alpha kinase 1)", "robust z-score, siRNA alone": 0.473, "Call": "inactive"}
{"Gene": "ADGRL2 (adhesion G protein-coupled receptor L2)", "robust z-score, siRNA alone": 0.473, "Call": "inactive"}
{"Gene": "EPHA8 (EPH receptor A8)", "robust z-score, siRNA alone": 0.473, "Call": "inactive"}
{"Gene": "COMMD3 (COMM domain containing 3)", "robust z-score, siRNA alone": 0.473, "Call": "inactive"}
{"Gene": "ULK3 (unc-51 like kinase 3)", "robust z-score, siRNA alone": 0.473, "Call": "inactive"}
{"Gene": "PMVK (phosphomevalonate kinase)", "robust z-score, siRNA alone": -0.414, "Call": "inactive"}

Reagents listed so far with an active call (1):
{"Gene": "TRIB2 (tribbles pseudokinase 2)", "robust z-score, siRNA alone": -3.13, "Call": "active"}
